Laboratory results published in PubChem BioAssay AID1259354 (Paczesny and Yang Labs, IUPUI and University of Michigan, 2018).
In all, about 78,000 compounds went through this assay and about 1,800 (2.3%) were called active. The shares of active, inactive and inconclusive entries below differ from those in the screen. No stated cut-off is given here; in the data, active means inhibition above about 30%; inconclusive means mostly about 10% to 28%; inactive means weaker than that.

By UniProt entry, the sequences of proteins in these tests, tags left out. Where a name states a change or a piece, a line headed by the entry shows the natural chain unless it says otherwise.
UniProt Q01638: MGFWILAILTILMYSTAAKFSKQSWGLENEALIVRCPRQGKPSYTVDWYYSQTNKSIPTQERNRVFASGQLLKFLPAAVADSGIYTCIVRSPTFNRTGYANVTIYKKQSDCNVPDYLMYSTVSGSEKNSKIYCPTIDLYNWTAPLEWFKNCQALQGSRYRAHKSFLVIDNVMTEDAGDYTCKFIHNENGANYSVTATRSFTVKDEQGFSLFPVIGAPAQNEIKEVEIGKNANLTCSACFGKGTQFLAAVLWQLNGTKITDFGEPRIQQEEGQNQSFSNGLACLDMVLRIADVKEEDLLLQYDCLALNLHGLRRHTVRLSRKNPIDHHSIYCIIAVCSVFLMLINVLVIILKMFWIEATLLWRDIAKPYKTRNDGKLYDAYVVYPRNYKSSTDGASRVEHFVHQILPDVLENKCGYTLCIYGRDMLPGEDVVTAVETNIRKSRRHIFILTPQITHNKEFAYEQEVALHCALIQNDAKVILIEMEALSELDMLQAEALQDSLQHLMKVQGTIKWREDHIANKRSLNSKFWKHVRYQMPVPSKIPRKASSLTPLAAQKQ

These compounds were tested against Interleukin-1 receptor-like 1 (Homo sapiens) (UniProt Q01638) (assay: blocks human ST2 binding to IL-33, primary screen, biochemical, AlphaLISA (AID 1259354)). Settings: AlphaLISA ST2-Fc/biotin-IL-33 interaction, 1 h; at 17 µM, active compounds read high.

Compound | inhibition
O=C(c1cc(COc2cncc(Cl)c2)on1)N1CC[C@@H]2CCCC[C@H]2C1 | inconclusive: 18%
COc1cccc(-c2cc(N3CCN(S(=O)(=O)c4cc(F)ccc4F)CC3)ncn2)c1 | inactive
COc1ccc2c(c1)sc(=NC(=O)CSCC(=O)N1CCc3ccccc31)n2C | inactive
CC(C)c1ccc(/C=C2/SC(=Nc3ccccc3)NC2=O)cc1 | active: 37%
O=C1c2ccccc2C(=O)C1[N+](=O)[O-] (tested in a mixture with another compound) | inactive
O=C(Nc1ccc(S(=O)(=O)Nc2nccs2)cc1)C12CC3CC(CC(C3)C1)C2 | inconclusive: 15%
COc1cc(CCCO)cc(-c2cc(CCCO)cc(OC)c2O)c1O | inactive
Nc1cccc(N=Cc2nc(-c3ccc(Br)cc3)oc2O)n1 | inconclusive: 18%
COc1ccc(CCNC(=O)C2CCC(=O)N(C3CCCC3)C2)cc1 (stereo unspecified) | inactive
O=C(CCc1nc(-c2ccccc2F)no1)NCc1ccc(F)cc1Cl | inconclusive: 14%
CC(C)C(C)N(Cc1ccco1)C(=O)CC1CCOCC1 (stereo unspecified) | inconclusive: 16%
CN(Cc1ccccc1)C(=O)CN(c1ccc([N+](=O)[O-])cc1)S(=O)(=O)c1ccccc1 | inconclusive: 23%
COc1ccccc1CN[C@H]1[C@H](O)[C@@H](N2CCCCC2)[C@@H]2OC[C@H]1O2 | inconclusive: 10%
N/C(=N/OC(=O)N1c2ccccc2Sc2ccccc21)c1ccccc1 | active: 50%
O=C1CCCN1CCn1ccnc1-c1ccc(-c2ccn[nH]2)o1 | inconclusive: 16%
CCNc1nc(NCC)nc(Oc2ccc(C=O)cc2)n1 | inactive
N#CC1=C(N)Oc2cc(N)ccc2C1c1ccc(Cl)c(Cl)c1 (stereo unspecified) | inactive
Cc1ccc(C2(O)CCN(S(=O)(=O)c3cn(C)cn3)CC2)nc1 | inconclusive: 18%
CC(=O)c1cc(C(=O)N2CCCC(C(=O)c3cccc(C(F)(F)F)c3)C2)cs1 (stereo unspecified) | inconclusive: 15%
O=C1CSC(c2ccc(Br)cc2)N1c1cccc(F)c1 (stereo unspecified) | inactive
O=C(Nc1cccc(C(F)(F)F)c1)O[C@@H]1CO[C@H]2[C@@H]1OC[C@@H]2Nc1nccc(-c2ccc3c(c2)OCO3)n1 | inconclusive: 11%
Cc1ccccc1N1CSC2=C(C#N)C(c3ccccc3Cl)CC(=O)N2C1 (stereo unspecified) | inconclusive: 12%
O=C(c1csnn1)N1CCCC(N2CCN(c3cccc(C(F)(F)F)c3)CC2)C1 (stereo unspecified) | inactive

Compound | inhibition
NS(=O)(=O)c1ccc(NC(=O)CSc2nc(-c3ccccc3)c(-c3ccccc3)o2)cc1 | inactive
CC1CCCN(C(=O)c2cc3cc4ccc(Cl)cc4nc3o2)C1 (stereo unspecified) | inconclusive: 17%
C=CCN(CC#Cc1ccccc1)Cc1cnc(C)[nH]1 | inconclusive: 13%
CCOC(=O)N1CCC(NC(=O)C2CC23CCN(C(=O)CCc2ccc(C)cc2)CC3)CC1 (stereo unspecified) | inconclusive: 14%
Cc1occc1C(=O)Nc1ccc(Cc2ccc(NC(=O)c3ccoc3C)cc2)cc1 | inconclusive: 18%
CCCN1CCC(N2CCOC(Cc3cccc(OC)c3)C2)CC1 (stereo unspecified) | inactive
COc1cc(C(=O)Nc2c(C(=O)Nc3ccccc3F)oc3ccccc23)cc(OC)c1OC | inactive
CN1CCC(N2CCC[C@@H](O)[C@H](NC(=O)c3ccc(OCc4ccccc4)cc3)C2)CC1 | inconclusive: 12%
Cc1ccc(CCSc2ccccc2)cn1 | inactive
O=C(O)c1ccc(NC(=O)c2ccc(F)c(S(=O)(=O)N3CCOCC3)c2)cc1 | inconclusive: 21%
CC(C)(C)c1cc(CN2CCc3[nH]cnc3C2Cc2ccccc2)[nH]n1 (stereo unspecified) | inconclusive: 14%
CCn1c2ccccc2c2cc(-c3nccn3CCNC(C)=O)ccc21 | inconclusive: 13%
COc1ccc(C2SCCN2S(=O)(=O)c2cccc(C)c2)cc1[N+](=O)[O-] (stereo unspecified) | active: 31%
CCN1Cc2nc(OC)c(CNC(=O)c3cn4c(C)cccc4n3)cc2C1=O | inconclusive: 17%
Cc1ccc(N2CC(NC(=O)C3CCCCC3)CC2=O)cc1 (stereo unspecified) | inconclusive: 18%
COc1ccc(C2=NN(C(C)=O)C(c3cc4ccccc4nc3Cl)C2)cc1OC (stereo unspecified) | inactive
CCc1ccc(C2CC(c3cccc(OC)c3)n3ncnc3N2)cc1 (stereo unspecified) | inactive
Cc1ccc(C(c2sc3nc(C)nn3c2O)N2CCC(C)CC2)cc1 (stereo unspecified) | inconclusive: 10%
N#C/C(=C\c1cc2c(cc1Br)OCO2)c1nc2ccccc2[nH]1 | inactive
COCCCNC(=O)c1cc2cc3ccc(OC)cc3nc2s1 | inconclusive: 24%
COC(=O)C1=C(C)Nc2nc(SCc3ccccc3)[nH]c(=O)c2C1c1ccncc1 (stereo unspecified) | inactive
CC(C)=CCCC(C)(O)CCCC(C)(O)CCCC(C)(O)CCCC(C)(O)CCCC(C)(O)CCCC(C)(O)C(O)CC/C(C)=C/CC/C(C)=C/CO[C@@H]1O[C@H](CO)[C@@H](O)[C@H](O)[C@H]1O (stereo partly specified) | inconclusive: 16%
COc1cc(OC)cc(-c2cc3nc(C)c(CCC(=O)NC4CCCC4)c(C)n3n2)c1 | inactive

Compound | inhibition
O=C(CN1C(=O)c2ccc([N+](=O)[O-])cc2C1=O)Nc1ccc(Br)cc1C(=O)O | inconclusive: 27%
Cc1[nH]nc(Nc2ccc(Br)cc2)c1[N+](=O)[O-] | inconclusive: 11%
CCCNc1nc(Cl)nc(NCc2cccnc2)n1 | inconclusive: 22%
O=C(Nc1ccccc1I)c1sc2ccccc2c1Cl | inactive
O=C(Nc1ccc(I)cc1Cl)c1ccc(-c2ccccc2[N+](=O)[O-])o1 | inactive
Cc1cccc(NC(=O)N2CCC(n3cc(-c4ccccn4)nn3)CC2)c1C | inconclusive: 12%
CCn1nc(C)c(C(=O)N2CCCC(O)(CO)CC2)c1C (stereo unspecified) | inactive
C=CCN(CN1C(=O)C2CC=C(Cl)CC2C1=O)CN1C(=O)C2CC=C(Cl)CC2C1=O (stereo unspecified) | inactive
Cc1cccc(C)c1NC(=O)C1CCCCC1C(=O)O (stereo unspecified) | inactive
Oc1ccc(-c2cnc3ccccc3n2)cc1 | inconclusive: 19%
CC(O)(Cc1oc2ccc([N+](=O)[O-])cc2c1N1CCOCC1)C1C[C@@H]2C=C[C@H]1C2 (stereo partly specified) | inconclusive: 15%
CC(C)NC(=O)C[C@@H]1CCNC[C@@H]1Cc1cc(-c2ccccc2)on1 | inconclusive: 11%
O=C(NCc1ccco1)c1ccc2nc3sc4c(c3c(=O)n2c1)CCCC4 | inconclusive: 18%
COc1ccc(CC2(CCC(=O)N3CCN(C4CCCCC4)C(=O)C3)CCC(=O)N2)c2ccccc12 (stereo unspecified) | inactive
CC(=O)c1cccc(NC(=O)C(Cc2ccc([N+](=O)[O-])cc2)N2C(=O)c3ccccc3C2=O)c1 (stereo unspecified) | inconclusive: 17%
O=C(Cn1c(=O)sc2ccccc21)Nc1ccc(F)cc1 | inactive
COc1ccc(-c2noc([C@@H]3C[C@@H](O)CN3Cc3cccs3)n2)cc1 | inconclusive: 14%
O=C(Nc1ccccc1)[C@H]1O[C@H](CCN2CCN(c3ccc(F)cc3)CC2)CC[C@@H]1O | inconclusive: 13%
CS(=O)(=O)N(Cc1ccccc1)c1ccc(C(=O)Nc2ccc(C(N)=O)cc2)cc1 | inconclusive: 14%
O=C(Cc1ccccc1)Nc1ccc(I)cc1Cl | inactive
O=C(C1CCC1)N1CCc2cc(S(=O)(=O)Nc3cccc(Cl)c3)ccc21 | inconclusive: 17%
O=C(CCCn1c(=O)c2sccc2n(Cc2cccc([N+](=O)[O-])c2)c1=O)NCc1ccco1 | inactive
O=C(CSc1nc2c(c(=O)n1-c1ccccc1)SCC2)c1ccccc1 | inactive

In another format: 4 of the compounds above.
Compound,inhibition
O=C(CCc1nc(-c2ccccc2F)no1)NCc1ccc(F)cc1Cl,inconclusive: 14%
Cc1cccc(NC(=O)N2CCC(n3cc(-c4ccccn4)nn3)CC2)c1C,inconclusive: 12%
O=C(Cn1c(=O)sc2ccccc21)Nc1ccc(F)cc1,inactive
COc1ccc(-c2noc([C@@H]3C[C@@H](O)CN3Cc3cccs3)n2)cc1,inconclusive: 14%

Further structures

Compound | inhibition
Cc1ccc(CN2CC[C@H](c3nnc(Cc4ccccc4)o3)C2)o1 | inconclusive: 13%
CCOc1ccc(OCC)c(NS(=O)(=O)c2ccc(OCC)c3ncccc23)c1 | inconclusive: 11%
O=C(Nc1nc(-c2ccccn2)cs1)c1ccc(S(=O)(=O)N2CCOCC2)cc1 | inactive
Clc1ccc(OCCCN2CCOCC2)cc1 | inconclusive: 16%
COc1ccc2cc3cc(C(=O)NCc4ccco4)oc3nc2c1 | inconclusive: 10%
Cc1cc(C)n(CC(C)NCC2(c3cccc(F)c3)CCOCC2)n1 (stereo unspecified) | inactive
CC(C)CSc1nc2c(c(=O)[nH]1)C(c1ccc(Br)cc1)C1=C(CCCC1=O)N2 (stereo unspecified) | inactive
CC1=C(C(=O)Nc2ccccn2)C(c2ccc(O)cc2)n2ncnc2N1 (stereo unspecified) | inconclusive: 12%
Cc1nc(Cl)c(C(=O)NC(=O)NCCC(C)C)c(C)c1[N+](=O)[O-] | inactive
Cc1cc(C)c2c(=O)[nH]c(SCC(=O)N3CCCCC3)nc2n1 | inconclusive: 11%
COC(=O)c1ccccc1NC(=O)c1cc(-c2ccc3c(c2)OCO3)on1 | inactive
Nc1nnc2c([nH]c3ccccc32)c1-c1ccccc1 | inconclusive: 12%
O=C(c1cccs1)N1CCN(c2ccc([N+](=O)[O-])cc2)CC1 | inconclusive: 29%
Cn1c(C(=O)Nc2ccc(F)cc2)cc2c(=O)n3ccccc3nc21 | inconclusive: 26%
COc1ccc(NC(=O)c2c(N=Cc3cc(Cl)cc(Cl)c3OC)cnn2C)cc1 | inconclusive: 23%
Cn1c(=O)cc(SCC(=O)NCCC2=CCCCC2)c2ccccc21 | inconclusive: 13%
O=C(CSc1nc2c(c(=O)n1-c1ccccc1)SCC2)NC1CCCCC1 | inconclusive: 15%
CCOC(=O)c1cn(-c2ccc(Cl)cc2)c(=O)c2ccccc12 | inactive
N#Cc1cccc(-c2ccnc(N[C@H]3CO[C@H]4[C@@H]3OC[C@H]4OC(=O)Nc3ccc(Oc4ccccc4)cc3)n2)c1 | inconclusive: 16%
CCOc1cccc(CN(C(=O)c2cccc(C(C)=O)c2)C2CC2)c1 | inconclusive: 12%
COC(=O)c1ccc(C(=O)Nc2nc3c(cc4c5c(cccc53)CC4)s2)cc1 | inactive
CCOC(=O)Cn1cnc2c(oc3ccccc32)c1=O | inactive

3 records picked at random from the list so far:
Compound | inhibition
Cn1c(=O)cc(SCC(=O)NCCC2=CCCCC2)c2ccccc21 | inconclusive: 13%
COC(=O)c1ccccc1NC(=O)c1cc(-c2ccc3c(c2)OCO3)on1 | inactive
Nc1nnc2c([nH]c3ccccc32)c1-c1ccccc1 | inconclusive: 12%
